Assay results published in paper PMC6179962, “POLE3-POLE4 Is a Histone H3-H4 Chaperone that Maintains Chromatin Integrity during DNA Replication” (Molecular Cell, 2018).
Results are given in words; binding and its absence hold for the method and conditions named. Binding seen in cells or lysates may run through a third protein. A result given as binding can be weak or reduced; the word gives no strength.

Protein sequences, listed by entry. Tags and fused reporters are not part of them. Lines headed by an entry give the natural chain unless they say otherwise; changes in a name come on top.
UniProt Q9NRF9: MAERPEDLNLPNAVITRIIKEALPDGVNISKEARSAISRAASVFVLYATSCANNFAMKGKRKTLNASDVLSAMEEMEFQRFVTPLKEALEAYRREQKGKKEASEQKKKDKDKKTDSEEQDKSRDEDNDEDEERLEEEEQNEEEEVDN

Target: FLAG-tagged POLE3ΔC (human) (UniProt Q9NRF9)
Test: co-IP; POLE3ΔC-expressing HeLa TRex cells (Figure S6H); fraction not told

B1: endogenous POLE4 (protein, UniProt Q9NR33 1-117)
chain: MAAAAAAGSGTPREEEGPAGEAAASQPQAPTSVPGARLSRLPLARVKALVKADPDVTLAGQEAIFILARAAELFVETIAKDAYCCAQQGKRKTLQRRDLDNAIEAVDEFAFLEGTLD
binding: binds
